Experimental data published in the supplement of paper PMC11659162.
The other results are listed elsewhere or left out. The data scatter; read single values as rough.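 The cells are a human neuroglioma line carrying a green fluorescent autophagy reporter.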

Experiments:
H4 GFP-LC3 [1] = assay: cell viability (scaled to control) (fraction of control); higher = more viable cells
H4 GFP-LC3 [2] = assay: ACBP immunofluorescence intensity (scaled to control) (AU (scaled)); higher = more intracellular ACBP/DBI

SMILES | cell viability (H4 GFP-LC3 [1]; 6 h) | cell viability (H4 GFP-LC3 [1]; 24 h) | ACBP immunofluorescence intensity (H4 GFP-LC3 [2]; 6 h) | ACBP immunofluorescence intensity (H4 GFP-LC3 [2]; 24 h)
N[C@@H](Cc1ccc(O)c(O)c1)C(=O)O (5 µM) | 1.07 | 0.884 | 0.566 | 0.585
CN1CCC[C@H]1c1cccnc1 (5 µM) | 1.01 | 1.12 | 0.92 | 0.539
Cc1nc2n(c(=O)c1CCN1CCC(c3noc4cc(F)ccc34)CC1)CCCC2 (5 µM) | 0.886 | 1.23 | 0.82 | 0.719
OCCN1CCN(CC/C=C2/c3ccccc3Sc3ccc(C(F)(F)F)cc32)CC1 (5 µM) | 0.778 | 1.17 | 0.929 | 0.681
CCS(=O)(=O)N1CCC[C@@H]2CN3CCc4cc(OC)ccc4[C@@H]3C[C@@H]21 (5 µM) | 0.927 | 1.04 | 0.85 | 0.566
CC12CC3CC(C)(C1)CC(N)(C3)C2 (5 µM) | 1.17 | 1.12 | 0.385 | 0.532
CNC[C@H](O)c1ccc(O)c(O)c1 (5 µM) | 0.757 | 0.752 | 0.88 | 0.411
CN(C)CCCN1c2ccccc2Sc2ccc(Cl)cc21 (5 µM) | 0.802 | 1.14 | 0.871 | 0.55
O=C(O)[C@H]1CN[C@H](C(=O)O)C1 (5 µM) | 1.04 | 1.41 | 0.815 | 0.473
CC(C)C[C@H](NC(=O)[C@H](Cc1ccccc1)NC(=O)CNC(=O)CNC(=O)[C@@H](N)Cc1ccc(O)cc1)C(=O)N[C@@H](CCCN=C(N)N)C(=O)N[C@@H](CCCN=C(N)N)C(=O)N[C@@H](CCC(N)=O)C(=O)N[C@@H](Cc1ccccc1)C(=O)N[C@@H](CCCCN)C(=O)N[C@H](C(=O)N[C@H](C(=O)[C@H](C(=O)O)[C@@H](C)O)C(C)C)C(C)C (5 µM) | 1 | 1.03 | 0.777 | 0.722
Fc1ccc([C@@H]2CCNC[C@H]2COc2ccc3c(c2)OCO3)cc1 (5 µM) | 0.85 | 1.09 | 0.912 | 0.797
N[C@@H](CCC(=O)O)C(=O)O (5 µM) | 1.07 | 1.16 | 0.687 | 0.585
CC(C)NCC(O)COc1ccc(CC(N)=O)cc1 (racemic) (5 µM) | 0.722 | 0.994 | 0.95 | 0.886

Three entries from above, ordered by formula weight, low to high.
SMILES | cell viability (H4 GFP-LC3 [1]; 6 h) | cell viability (H4 GFP-LC3 [1]; 24 h) | ACBP immunofluorescence intensity (H4 GFP-LC3 [2]; 6 h) | ACBP immunofluorescence intensity (H4 GFP-LC3 [2]; 24 h)
O=C(O)[C@H]1CN[C@H](C(=O)O)C1 (5 µM) | 1.04 | 1.41 | 0.815 | 0.473
CC(C)NCC(O)COc1ccc(CC(N)=O)cc1 (racemic) (5 µM) | 0.722 | 0.994 | 0.95 | 0.886
Cc1nc2n(c(=O)c1CCN1CCC(c3noc4cc(F)ccc34)CC1)CCCC2 (5 µM) | 0.886 | 1.23 | 0.82 | 0.719
